Experimental data: PMC8384837
Numbering of substitutions follows the chain as printed. Some of the results follow. For some assays here: At the low end of the ranking, values are background and their order means little. For some assays here: The exact form of the protein is not confirmed.

Key:
Settings in all cases: yeast three-hybrid, YBZ-1, SC-Leu-His + 0.5 mM 3-AT, 4 days
[1] = molecular target: T1, PUM1 PUF domain R1-QFR R2-VFQ R7-NPG S863Q + R864F + Q867R + N899V + Y900F + S1079N + N1080P + E1083G (UniProt Q14671)
T1 sequence: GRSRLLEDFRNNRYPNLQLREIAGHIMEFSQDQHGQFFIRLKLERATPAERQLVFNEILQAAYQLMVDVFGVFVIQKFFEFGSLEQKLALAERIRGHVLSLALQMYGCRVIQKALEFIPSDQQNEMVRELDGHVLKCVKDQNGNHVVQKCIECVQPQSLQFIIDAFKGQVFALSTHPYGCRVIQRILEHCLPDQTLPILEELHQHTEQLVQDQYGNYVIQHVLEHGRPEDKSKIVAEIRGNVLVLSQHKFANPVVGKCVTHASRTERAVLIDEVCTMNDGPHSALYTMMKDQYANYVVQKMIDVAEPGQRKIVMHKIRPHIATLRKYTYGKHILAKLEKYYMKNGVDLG

[2] = molecular target: T2, PUM1 PUF domain R2-VFQ R3-THE R4-TFR N899V + Y900F + C935T + R936H + Q939E + N971T + H972F + Q975R (UniProt Q14671)
T2 sequence: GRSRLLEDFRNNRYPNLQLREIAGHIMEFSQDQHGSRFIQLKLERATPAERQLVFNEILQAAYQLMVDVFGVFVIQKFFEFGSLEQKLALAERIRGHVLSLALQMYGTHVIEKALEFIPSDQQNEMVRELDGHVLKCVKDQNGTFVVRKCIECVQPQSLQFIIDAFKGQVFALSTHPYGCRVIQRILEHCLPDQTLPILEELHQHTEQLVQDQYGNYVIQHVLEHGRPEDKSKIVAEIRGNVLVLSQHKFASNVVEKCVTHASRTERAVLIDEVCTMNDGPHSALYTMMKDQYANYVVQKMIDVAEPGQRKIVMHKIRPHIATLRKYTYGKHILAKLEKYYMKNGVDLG

[3] = molecular target: T3, PUM1 PUF domain R3-THE R4-TFR C935T + R936H + Q939E + N971T + H972F + Q975R (UniProt Q14671)
T3 sequence: T2 sequence with V72N, F73Y

[4] = molecular target: T4, PUM1 PUF domain R3-THE R4-TFR R7-NPG C935T + R936H + Q939E + N971T + H972F + Q975R + S1079N + N1080P + E1083G (Homo sapiens) (UniProt Q14671)
T4 sequence: T2 sequence with V72N, F73Y, S252N, N253P, E256G

[5] = molecular target: T5, PUM1 PUF domain R5-PHQ R6-SWD C1007P + R1008H + N1043S + Y1044W + Q1047D (UniProt Q14671)
T5 sequence: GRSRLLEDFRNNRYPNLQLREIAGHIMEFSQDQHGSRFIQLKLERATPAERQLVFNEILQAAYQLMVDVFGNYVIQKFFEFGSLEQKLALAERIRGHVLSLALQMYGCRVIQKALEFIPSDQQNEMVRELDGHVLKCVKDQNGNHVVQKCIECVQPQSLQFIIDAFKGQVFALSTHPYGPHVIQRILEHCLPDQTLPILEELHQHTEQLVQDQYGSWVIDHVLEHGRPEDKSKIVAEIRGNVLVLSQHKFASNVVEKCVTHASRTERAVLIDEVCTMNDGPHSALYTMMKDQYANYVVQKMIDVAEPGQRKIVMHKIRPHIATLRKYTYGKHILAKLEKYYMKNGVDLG

[6] = molecular target: T6, PUM1 PUF domain R6-SWD R7-NPG N1043S + Y1044W + Q1047D + S1079N + N1080P + E1083G (Homo sapiens) (UniProt Q14671)
T6 sequence: T5 sequence with P180C, H181R, S252N, N253P, E256G

[7] = molecular target: T7, PUM1 PUF domain R3-THE R4-TFR R7-NPG C935T + R936H + Q939E + N971T + H972F + Q975R + S1079N + N1080P + E1083G (UniProt Q14671)
T7 sequence: T2 sequence with V72N, F73Y, S252N, N253P, E256G

[8] = molecular target: T8, PUM1 PUF domain R6-SWD R7-NPG N1043S + Y1044W + Q1047D + S1079N + N1080P + E1083G (UniProt Q14671)
T8 sequence: T5 sequence with P180C, H181R, S252N, N253P, E256G

Row | Sequence | binding signal (log2 enrichment (interaction score)) [1] | binding signal (log2 enrichment (interaction score)) [2] | binding signal (log2 enrichment (interaction score)) [3] | binding signal (log2 enrichment (interaction score)) [4] | binding signal (log2 enrichment (interaction score)) [5] | binding signal (log2 enrichment (interaction score)) [6] | binding signal (log2 enrichment (interaction score)) [7] | binding signal (log2 enrichment (interaction score)) [8]
1 | GGCUAGAACUAGUGGAUCCCCCGGCGCCCGGCGGCUCGAGCCCGGGUAAGAGUAAAUAGUCUGCAUGCCGCCGGGCGCCAUGCCUGCAGGUCGACUCUAGAAAACAUG | -6.47 | < -5.68 | -6.01 | -0.31 | -8.21 | -1.29 |  | 
2 | GGCUAGAACUAGUGGAUCCCCCGGCGCCCGGCGGCUCGAGCCCGGGUAAGUUUAAUUAGUCUGCAUGCCGCCGGGCGCCAUGCCUGCAGGUCGACUCUAGAAAACAUG | -5.94 | -5.16 | -6.78 |  | -8.63 | -1.04 | -2.54 | 
3 | GGCUAGAACUAGUGGAUCCCCCGGCGCCCGGCGGCUCGAGCCCGGGUAAGUUAACGAAGUCUGCAUGCCGCCGGGCGCCAUGCCUGCAGGUCGACUCUAGAAAACAUG | -5.44 | -5.54 | -7.46 |  |  |  | -2.6 | 
4 | GGCUAGAACUAGUGGAUCCCCCGGCGCCCGGCGGCUCGAGCCCGGGUAAGUGGACGUCGUCUGCAUGCCGCCGGGCGCCAUGCCUGCAGGUCGACUCUAGAAAACAUG | -5.83 | -5.4 | -7.15 | -1.85 | -8.12 | -1.86 |  | 
5 | GGCUAGAACUAGUGGAUCCCCCGGCGCCCGGCGGCUCGAGCCCGGGUAAGUUUAGAUAGUCUGCAUGCCGCCGGGCGCCAUGCCUGCAGGUCGACUCUAGAAAACAUG | < -6.74 | -5.59 | < -6.78 | < -1.27 | -8.38 |  |  | -2.39
6 | GGCUAGAACUAGUGGAUCCCCCGGCGCCCGGCGGCUCGAGCCCGGGUAAGUGUAAGCAGUCUGCAUGCCGCCGGGCGCCAUGCCUGCAGGUCGACUCUAGAAAACAUG | -5.85 | -5.82 | < -7.67 |  | -7.95 |  |  | 
7 | GGCUAGAACUAGUGGAUCCCCCGGCGCCCGGCGGCUCGAGCCCGGGUAAGUUAAAAUAGUCUGCAUGCCGCCGGGCGCCAUGCCUGCAGGUCGACUCUAGAAAACAUG | -5.22 | -5.81 | -7.43 | < -1.63 | -7.56 |  |  | -2.3
8 | GGCUAGAACUAGUGGAUCCCCCGGCGCCCGGCGGCUCGAGCCCGGGUAAGUUGGCGUAGUCUGCAUGCCGCCGGGCGCCAUGCCUGCAGGUCGACUCUAGAAAACAUG | -6.12 | -5.55 | -7.11 | -1.69 | -7.11 | -0.37 |  | 
